From publication PMC8581416
These are yes or no findings as the source states them, for the method shown. In cells and extracts the contact can be indirect. These calls come from enrichment with a bait or labelling near it, and not all partners need be listed.

Amino acid sequences for entries named in this document (tags omitted).
UniProt Q8VEK3: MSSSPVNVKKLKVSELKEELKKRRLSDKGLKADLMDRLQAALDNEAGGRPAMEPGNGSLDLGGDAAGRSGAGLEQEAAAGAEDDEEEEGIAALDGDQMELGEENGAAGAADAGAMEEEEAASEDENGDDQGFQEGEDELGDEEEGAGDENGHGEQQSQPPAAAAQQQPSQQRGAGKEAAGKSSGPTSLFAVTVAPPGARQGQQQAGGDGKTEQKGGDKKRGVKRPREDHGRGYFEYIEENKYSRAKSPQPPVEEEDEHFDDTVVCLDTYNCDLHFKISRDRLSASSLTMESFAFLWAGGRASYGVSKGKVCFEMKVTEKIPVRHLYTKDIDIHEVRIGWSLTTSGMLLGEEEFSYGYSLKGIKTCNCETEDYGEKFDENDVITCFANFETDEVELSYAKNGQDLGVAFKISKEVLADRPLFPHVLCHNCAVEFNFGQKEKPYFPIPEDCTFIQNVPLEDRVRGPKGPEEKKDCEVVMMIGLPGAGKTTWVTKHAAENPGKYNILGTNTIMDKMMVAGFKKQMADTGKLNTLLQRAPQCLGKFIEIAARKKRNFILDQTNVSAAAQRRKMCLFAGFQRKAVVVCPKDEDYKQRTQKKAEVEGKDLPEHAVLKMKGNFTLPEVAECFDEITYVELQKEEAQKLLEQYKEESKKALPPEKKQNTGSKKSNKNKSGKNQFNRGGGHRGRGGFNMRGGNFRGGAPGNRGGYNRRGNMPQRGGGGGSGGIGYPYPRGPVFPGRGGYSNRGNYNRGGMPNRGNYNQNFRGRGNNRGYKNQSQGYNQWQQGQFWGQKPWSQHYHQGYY
UniProt P22561: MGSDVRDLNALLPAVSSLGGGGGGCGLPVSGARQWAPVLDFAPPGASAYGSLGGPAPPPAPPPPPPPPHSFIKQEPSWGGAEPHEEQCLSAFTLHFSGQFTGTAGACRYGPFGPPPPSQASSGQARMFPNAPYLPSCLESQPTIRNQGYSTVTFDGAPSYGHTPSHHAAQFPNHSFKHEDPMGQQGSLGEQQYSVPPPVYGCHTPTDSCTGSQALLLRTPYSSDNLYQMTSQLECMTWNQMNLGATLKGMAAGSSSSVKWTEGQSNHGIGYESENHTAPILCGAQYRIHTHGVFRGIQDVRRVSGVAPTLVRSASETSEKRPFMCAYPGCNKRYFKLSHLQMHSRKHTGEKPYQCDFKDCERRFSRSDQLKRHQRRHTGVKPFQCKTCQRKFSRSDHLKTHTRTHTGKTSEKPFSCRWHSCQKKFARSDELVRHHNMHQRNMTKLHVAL

Molecular target: hnRNPU (mouse (endogenous in testis)) (UniProt Q8VEK3)
Experiment: affinity purification with mass spectrometry; immunoprecipitation with an anti-hnRNPU antibody from mouse testes, followed by LC/MS

binding: binds
Substance: Wilms' tumor 1 (WT1) (from UniProt P22561 1-449)
